{
  "sequences": {"note": "The chains behind the UniProt entries cited, without tags or fusion partners. Residues count along the entry.", "UniProt Q64373": "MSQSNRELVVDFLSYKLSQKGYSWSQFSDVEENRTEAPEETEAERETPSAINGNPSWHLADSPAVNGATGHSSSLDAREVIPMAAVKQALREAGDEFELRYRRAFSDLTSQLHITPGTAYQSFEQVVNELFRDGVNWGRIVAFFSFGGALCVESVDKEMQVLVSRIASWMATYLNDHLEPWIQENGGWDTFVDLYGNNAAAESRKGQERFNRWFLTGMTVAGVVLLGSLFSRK", "UniProt P56480, residues 47-529": "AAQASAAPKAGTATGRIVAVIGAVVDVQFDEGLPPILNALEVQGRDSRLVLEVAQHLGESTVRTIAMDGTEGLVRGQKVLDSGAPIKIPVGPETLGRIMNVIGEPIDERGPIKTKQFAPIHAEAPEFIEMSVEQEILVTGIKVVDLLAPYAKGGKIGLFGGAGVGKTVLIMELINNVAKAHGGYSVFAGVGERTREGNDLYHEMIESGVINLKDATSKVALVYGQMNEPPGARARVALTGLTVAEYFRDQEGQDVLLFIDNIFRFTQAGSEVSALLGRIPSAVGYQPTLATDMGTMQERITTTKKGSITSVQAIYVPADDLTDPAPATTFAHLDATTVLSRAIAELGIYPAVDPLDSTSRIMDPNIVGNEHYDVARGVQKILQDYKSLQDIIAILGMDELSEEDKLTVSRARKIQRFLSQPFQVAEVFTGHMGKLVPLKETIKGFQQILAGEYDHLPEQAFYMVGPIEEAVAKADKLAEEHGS"},
  "source": "paper PMC10848067",
  "key": {"[1]": {"target": "Bcl‐xL (mouse (endogenous in mouse brain tissue)) (UniProt Q64373)", "assay": "co-IP; mouse brain tissue lysate of WT and PGAM5 knockout mice, precleared with protein A/G magnetic beads; 2 μg rabbit anti-Bcl-xL overnight at 4°C, then magnetic beads 4 h; blot for ATP-β"}, "[2]": {"target": "T1, PGAM5 (mouse (endogenous in mouse brain tissue)) (UniProt Q8BX10)", "T1 sequence": "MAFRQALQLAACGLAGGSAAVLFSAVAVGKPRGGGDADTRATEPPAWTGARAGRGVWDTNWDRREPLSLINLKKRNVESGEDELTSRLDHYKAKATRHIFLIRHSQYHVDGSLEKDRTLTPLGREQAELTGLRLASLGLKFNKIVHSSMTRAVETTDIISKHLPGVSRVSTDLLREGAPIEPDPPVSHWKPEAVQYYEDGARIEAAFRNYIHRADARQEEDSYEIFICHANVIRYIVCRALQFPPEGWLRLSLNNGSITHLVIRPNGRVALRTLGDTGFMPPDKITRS", "assay": "co-IP; mouse brain tissue lysate, precleared with protein A/G magnetic beads; 2.5 μg rabbit anti-Pgam5 overnight at 4°C, then magnetic beads 4 h; blot for ATP-β"}},
  "note": "Results are given in words; binding and its absence hold for the method and conditions named. In cells and extracts the contact can be indirect. Some results given as binding are weak or reduced against the parent protein; the word gives no strength.",
  "data": [
    {"substance": "F1F0 ATP synthase β subunit (from UniProt P56480 47-529)", "values": [
      {"measurement": "binding", "setting": "[1]", "result": "binds"},
      {"measurement": "binding", "setting": "[2]", "result": "binds"}
    ]}
  ]
}
